Data as given in PubChem BioAssay AID1508587 (Peter MacCallum Cancer Centre, 2020).
The deposit covers about 1,600 reagents; below is a part drawn at random. Over the whole deposit, 623 (39%) were called active. 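Calls are for each duplex; lactate ratios contain extreme outliers.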 The numbers tell different reagents against one gene apart.

Purpose: 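Retest of knockdowns boosting BRAF inhibitor action on lactate release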 (follow-up of hits)
System: human WM266.4 melanoma cells with a BRAF V600 mutation
Reagent: single siRNA against human genes, 25 nM
Timing: 96 h
Challenge: vemurafenib 300 nM (about IC25), given 48 h after transfection for 48 h
Measured: 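Per-cell lactate from absorbance divided by DAPI nucleus counts, compared with and without vemurafenib, relative to non-targeting siRNA, mean of 2 replicates; nuclear counts also give cell number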
Scale: lactate per cell, drug vs no drug: higher = less drug-induced drop in lactate per cell; lactate per cell with vemurafenib: higher = more lactate per cell under drug; lactate per cell without drug: higher = more lactate per cell without drug; cell growth with vemurafenib and cell growth without drug: higher = more cell growth over 48 h
Rule for the call: 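Enhancer call for any duplex whose drug versus no-drug per-cell lactate ratio is below 0.55 (2 SD beneath non-targeting average); genes confirmed when at least 2 of their 4 duplexes qualify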

| target | reagent | lactate per cell, drug vs no drug | lactate per cell with vemurafenib | lactate per cell without drug | cell growth with vemurafenib | cell growth without drug | Call |
| --- | --- | --- | --- | --- | --- | --- | --- |
| ARHGAP6 (Rho GTPase activating protein 6) | 1 | 0.7 | 2.58 | 2.43 | 0.05 | 0.03 | inactive |
| ARHGAP6 (Rho GTPase activating protein 6) | 2 | 0.65 | 1.17 | 1.22 | 0.2 | 0.41 | inactive |
| ARHGAP6 (Rho GTPase activating protein 6) | 3 | 0.48 | 0.63 | 0.87 | 0.67 | 0.9 | active |
| ARHGAP6 (Rho GTPase activating protein 6) | 4 | 0.72 | 2.05 | 1.86 | 0.21 | 0.32 | inactive |
| WNT8A (Wnt family member 8A) | 1 | 0.48 | 0.86 | 1.12 | 0.24 | 0.25 | active |
| WNT8A (Wnt family member 8A) | 2 | 0.86 | 2.82 | 2.03 | 0.12 | 0.26 | inactive |
| WNT8A (Wnt family member 8A) | 3 | 0.94 | 2.86 | 1.88 | 0.01 | 0.01 | inactive |
| WNT8A (Wnt family member 8A) | 4 | 0.45 | 1.14 | 1.54 | 0.58 | 0.27 | active |

Quoted from above for reference:
| target | reagent | lactate per cell, drug vs no drug | lactate per cell with vemurafenib | lactate per cell without drug | cell growth with vemurafenib | cell growth without drug | Call |
| --- | --- | --- | --- | --- | --- | --- | --- |
| ARHGAP6 (Rho GTPase activating protein 6) | 3 | 0.48 | 0.63 | 0.87 | 0.67 | 0.9 | active |
| ARHGAP6 (Rho GTPase activating protein 6) | 4 | 0.72 | 2.05 | 1.86 | 0.21 | 0.32 | inactive |
| WNT8A (Wnt family member 8A) | 1 | 0.48 | 0.86 | 1.12 | 0.24 | 0.25 | active |

Next records follow:
| target | reagent | lactate per cell, drug vs no drug | lactate per cell with vemurafenib | lactate per cell without drug | cell growth with vemurafenib | cell growth without drug | Call |
| --- | --- | --- | --- | --- | --- | --- | --- |
| MARK1 (microtubule affinity regulating kinase 1) | 1 | 0.64 | 0.9 | 0.91 | 0.15 | 0.49 | inactive |
| MARK1 (microtubule affinity regulating kinase 1) | 2 | 0.55 | 0.92 | 1.07 | 0.69 | 0.6 | inactive |
| MARK1 (microtubule affinity regulating kinase 1) | 3 | 0.56 | 0.7 | 0.8 | 1.01 | 1.14 | inactive |
| MARK1 (microtubule affinity regulating kinase 1) | 4 | 0.7 | 1.34 | 1.19 | 0.77 | 0.85 | inactive |
| CCDC71L (coiled-coil domain containing 71 like) | 1 | 0.8 | 1.27 | 1.17 | 0.04 | 0.3 | inactive |
| CCDC71L (coiled-coil domain containing 71 like) | 2 | 0.73 | 3.09 | 3.04 | -0.01 | 0.04 | inactive |
| CCDC71L (coiled-coil domain containing 71 like) | 3 | 0.26 | 0.32 | 0.88 | 0.31 | 0.4 | active |
| CCDC71L (coiled-coil domain containing 71 like) | 4 | 0.72 | 1.83 | 1.82 | 0.44 | 0.26 | inactive |
| TRIB3 (tribbles pseudokinase 3) | 1 | 0.56 | 1.92 | 2.21 | 0.31 | 0.14 | inactive |
| TRIB3 (tribbles pseudokinase 3) | 2 | 0.92 | 1.1 | 0.75 | 0.11 | 0.77 | inactive |
| TRIB3 (tribbles pseudokinase 3) | 3 | 0.84 | 2.24 | 1.73 | 0.14 | 0.35 | inactive |
| TRIB3 (tribbles pseudokinase 3) | 4 | 0.53 | 0.73 | 0.88 | 0.45 | 0.53 | active |
